No constants are given. Whether binding was seen depends on the method and setting. Binding seen in cells or lysates may run through a third protein. Some binding calls cover weakened binding; strength is not graded here.
Experiments:
Experiment in all cases: co-IP; HEK293T cells co-transfected pairwise with a FLAG and an HA construct, 48 h; lysis in TBS (30 mM Tris-HCl pH 7.4, 150 mM NaCl) with 0.5% Nonidet P40; FLAG-IP on ANTI-FLAG M2 Affinity Gel 60-90 min at 4°C, elution with FLAG peptide; Western blot with HA and FLAG antibodies; for mutants HA/FLAG signal in eluates relative to WT, three biological replicates
[1] = biological target: T1, Human CRB3 (Crumbs homolog 3) (human) (UniProt Q9BUF7)
T1 sequence: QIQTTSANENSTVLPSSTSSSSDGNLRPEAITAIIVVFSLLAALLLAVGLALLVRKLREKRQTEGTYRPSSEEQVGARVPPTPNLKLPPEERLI

Amino acid sequences for entries named in this document (tags omitted). Residues count along the entry.
UniProt Q5IJ48, residues 29-1285: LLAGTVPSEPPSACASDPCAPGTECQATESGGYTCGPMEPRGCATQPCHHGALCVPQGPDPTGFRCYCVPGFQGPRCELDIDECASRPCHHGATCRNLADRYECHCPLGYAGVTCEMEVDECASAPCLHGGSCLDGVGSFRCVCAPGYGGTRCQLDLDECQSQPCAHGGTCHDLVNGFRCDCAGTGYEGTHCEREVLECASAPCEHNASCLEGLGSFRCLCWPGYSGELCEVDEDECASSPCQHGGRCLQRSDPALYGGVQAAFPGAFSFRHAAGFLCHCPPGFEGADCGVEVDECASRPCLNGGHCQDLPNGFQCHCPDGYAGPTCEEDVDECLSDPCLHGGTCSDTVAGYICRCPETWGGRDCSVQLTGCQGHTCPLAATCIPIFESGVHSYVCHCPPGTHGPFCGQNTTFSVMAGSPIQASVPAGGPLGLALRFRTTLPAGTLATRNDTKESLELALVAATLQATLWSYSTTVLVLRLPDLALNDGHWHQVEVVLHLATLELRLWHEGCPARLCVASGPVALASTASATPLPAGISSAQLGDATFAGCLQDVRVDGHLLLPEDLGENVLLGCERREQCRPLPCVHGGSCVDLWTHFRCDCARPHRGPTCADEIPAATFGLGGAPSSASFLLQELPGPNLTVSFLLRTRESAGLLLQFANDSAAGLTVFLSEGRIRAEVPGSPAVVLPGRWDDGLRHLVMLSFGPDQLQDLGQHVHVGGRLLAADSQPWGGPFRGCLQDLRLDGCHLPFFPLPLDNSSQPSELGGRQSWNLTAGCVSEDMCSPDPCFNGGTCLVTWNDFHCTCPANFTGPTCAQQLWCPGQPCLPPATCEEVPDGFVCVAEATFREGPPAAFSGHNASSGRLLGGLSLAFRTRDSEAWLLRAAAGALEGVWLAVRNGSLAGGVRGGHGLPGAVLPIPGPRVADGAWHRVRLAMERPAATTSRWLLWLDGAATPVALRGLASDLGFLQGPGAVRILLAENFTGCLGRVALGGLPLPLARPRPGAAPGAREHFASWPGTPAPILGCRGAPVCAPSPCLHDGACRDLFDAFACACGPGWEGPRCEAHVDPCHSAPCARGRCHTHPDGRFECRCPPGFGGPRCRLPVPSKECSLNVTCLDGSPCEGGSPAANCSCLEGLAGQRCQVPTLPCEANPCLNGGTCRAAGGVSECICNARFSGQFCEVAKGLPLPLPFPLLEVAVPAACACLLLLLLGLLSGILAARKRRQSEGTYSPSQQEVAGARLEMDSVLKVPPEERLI

[2] = biological target: Human canonical CRB2 (Crumbs homolog 2) (human) (UniProt Q5IJ48)
[3] = biological target: T2, Human canonical CRB1 (Crumbs homolog 1) (human) (UniProt P82279)
T2 sequence: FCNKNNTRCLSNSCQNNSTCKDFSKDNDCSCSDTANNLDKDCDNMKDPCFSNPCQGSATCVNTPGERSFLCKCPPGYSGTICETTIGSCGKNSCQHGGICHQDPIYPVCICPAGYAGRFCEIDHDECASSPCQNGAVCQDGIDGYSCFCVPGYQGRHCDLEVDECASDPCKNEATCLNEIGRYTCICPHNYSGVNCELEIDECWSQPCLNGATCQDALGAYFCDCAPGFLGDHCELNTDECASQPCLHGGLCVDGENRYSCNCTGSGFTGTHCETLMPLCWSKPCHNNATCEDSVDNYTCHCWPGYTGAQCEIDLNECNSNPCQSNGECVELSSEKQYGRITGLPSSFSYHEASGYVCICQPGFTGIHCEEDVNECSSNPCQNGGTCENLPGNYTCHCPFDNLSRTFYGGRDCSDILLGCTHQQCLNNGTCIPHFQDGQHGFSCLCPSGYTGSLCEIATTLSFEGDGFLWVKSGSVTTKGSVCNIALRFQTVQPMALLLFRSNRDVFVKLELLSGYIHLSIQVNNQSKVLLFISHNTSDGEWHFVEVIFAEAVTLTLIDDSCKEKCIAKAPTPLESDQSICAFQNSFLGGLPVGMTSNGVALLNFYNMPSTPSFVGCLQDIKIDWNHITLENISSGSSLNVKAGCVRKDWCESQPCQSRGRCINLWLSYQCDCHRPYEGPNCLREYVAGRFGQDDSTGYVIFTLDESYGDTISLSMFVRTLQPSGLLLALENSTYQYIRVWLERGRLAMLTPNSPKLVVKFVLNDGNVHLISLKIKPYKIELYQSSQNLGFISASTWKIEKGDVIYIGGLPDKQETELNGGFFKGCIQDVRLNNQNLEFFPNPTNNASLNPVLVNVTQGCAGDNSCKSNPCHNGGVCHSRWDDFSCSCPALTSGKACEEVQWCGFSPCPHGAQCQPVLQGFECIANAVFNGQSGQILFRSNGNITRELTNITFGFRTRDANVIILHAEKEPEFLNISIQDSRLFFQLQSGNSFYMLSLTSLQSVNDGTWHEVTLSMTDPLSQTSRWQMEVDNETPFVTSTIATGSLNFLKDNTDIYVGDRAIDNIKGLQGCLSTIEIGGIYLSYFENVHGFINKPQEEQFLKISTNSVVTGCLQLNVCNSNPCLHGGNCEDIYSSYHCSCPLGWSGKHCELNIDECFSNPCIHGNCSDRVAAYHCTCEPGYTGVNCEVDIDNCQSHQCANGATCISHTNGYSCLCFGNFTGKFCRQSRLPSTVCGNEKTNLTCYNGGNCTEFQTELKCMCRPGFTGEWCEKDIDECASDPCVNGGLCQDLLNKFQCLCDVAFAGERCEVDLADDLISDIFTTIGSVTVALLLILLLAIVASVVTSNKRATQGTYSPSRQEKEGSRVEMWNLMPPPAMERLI

[4] = biological target: T3, Human CRB3 (Crumbs homolog 3) (human), Q9BUF7; conditions: remark: other sources report otherwise
T3 chain: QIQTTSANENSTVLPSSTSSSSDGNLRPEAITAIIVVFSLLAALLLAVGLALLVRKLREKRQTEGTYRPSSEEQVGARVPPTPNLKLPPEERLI

| binding [1] | binding [2] | binding [3] | binding [4] | Binder |
| --- | --- | --- | --- | --- |
| no binding | binds | binds | – | Human canonical CRB1 (Crumbs homolog 1) (protein, UniProt P82279 26-1406) FCNKNNTRCLSNSCQNNSTCKDFSKDNDCSCSDTANNLDKDCDNMKDPCFSNPCQGSATCVNTPGERSFLCKCPPGYSGTICETTIGSCGKNSCQHGGICHQDPIYPVCICPAGYAGRFCEIDHDECASSPCQNGAVCQDGIDGYSCFCVPGYQGRHCDLEVDECASDPCKNEATCLNEIGRYTCICPHNYSGVNCELEIDECWSQPCLNGATCQDALGAYFCDCAPGFLGDHCELNTDECASQPCLHGGLCVDGENRYSCNCTGSGFTGTHCETLMPLCWSKPCHNNATCEDSVDNYTCHCWPGYTGAQCEIDLNECNSNPCQSNGECVELSSEKQYGRITGLPSSFSYHEASGYVCICQPGFTGIHCEEDVNECSSNPCQNGGTCENLPGNYTCHCPFDNLSRTFYGGRDCSDILLGCTHQQCLNNGTCIPHFQDGQHGFSCLCPSGYTGSLCEIATTLSFEGDGFLWVKSGSVTTKGSVCNIALRFQTVQPMALLLFRSNRDVFVKLELLSGYIHLSIQVNNQSKVLLFISHNTSDGEWHFVEVIFAEAVTLTLIDDSCKEKCIAKAPTPLESDQSICAFQNSFLGGLPVGMTSNGVALLNFYNMPSTPSFVGCLQDIKIDWNHITLENISSGSSLNVKAGCVRKDWCESQPCQSRGRCINLWLSYQCDCHRPYEGPNCLREYVAGRFGQDDSTGYVIFTLDESYGDTISLSMFVRTLQPSGLLLALENSTYQYIRVWLERGRLAMLTPNSPKLVVKFVLNDGNVHLISLKIKPYKIELYQSSQNLGFISASTWKIEKGDVIYIGGLPDKQETELNGGFFKGCIQDVRLNNQNLEFFPNPTNNASLNPVLVNVTQGCAGDNSCKSNPCHNGGVCHSRWDDFSCSCPALTSGKACEEVQWCGFSPCPHGAQCQPVLQGFECIANAVFNGQSGQILFRSNGNITRELTNITFGFRTRDANVIILHAEKEPEFLNISIQDSRLFFQLQSGNSFYMLSLTSLQSVNDGTWHEVTLSMTDPLSQTSRWQMEVDNETPFVTSTIATGSLNFLKDNTDIYVGDRAIDNIKGLQGCLSTIEIGGIYLSYFENVHGFINKPQEEQFLKISTNSVVTGCLQLNVCNSNPCLHGGNCEDIYSSYHCSCPLGWSGKHCELNIDECFSNPCIHGNCSDRVAAYHCTCEPGYTGVNCEVDIDNCQSHQCANGATCISHTNGYSCLCFGNFTGKFCRQSRLPSTVCGNEKTNLTCYNGGNCTEFQTELKCMCRPGFTGEWCEKDIDECASDPCVNGGLCQDLLNKFQCLCDVAFAGERCEVDLADDLISDIFTTIGSVTVALLLILLLAIVASVVTSNKRATQGTYSPSRQEKEGSRVEMWNLMPPPAMERLI |
| – | no binding | no binding | – | Human CRB3 (Crumbs homolog 3) (protein, UniProt Q9BUF7-1 27-120) QIQTTSANENSTVLPSSTSSSSDGNLRPEAITAIIVVFSLLAALLLAVGLALLVRKLREKRQTEGTYRPSSEEQVGARVPPTPNLKLPPEERLI |
| – | – | – | no binding | Human CRB3 (Crumbs homolog 3), Q9BUF7-1 27-120 (protein) QIQTTSANENSTVLPSSTSSSSDGNLRPEAITAIIVVFSLLAALLLAVGLALLVRKLREKRQTEGTYRPSSEEQVGARVPPTPNLKLPPEERLI |

From publication PMC10992996
